# Measured values as given in paper doi:10.1101/2021.09.14.460283.
# Amino acid sequences for entries named in this document (tags omitted).
# UniProt Q2M2I8: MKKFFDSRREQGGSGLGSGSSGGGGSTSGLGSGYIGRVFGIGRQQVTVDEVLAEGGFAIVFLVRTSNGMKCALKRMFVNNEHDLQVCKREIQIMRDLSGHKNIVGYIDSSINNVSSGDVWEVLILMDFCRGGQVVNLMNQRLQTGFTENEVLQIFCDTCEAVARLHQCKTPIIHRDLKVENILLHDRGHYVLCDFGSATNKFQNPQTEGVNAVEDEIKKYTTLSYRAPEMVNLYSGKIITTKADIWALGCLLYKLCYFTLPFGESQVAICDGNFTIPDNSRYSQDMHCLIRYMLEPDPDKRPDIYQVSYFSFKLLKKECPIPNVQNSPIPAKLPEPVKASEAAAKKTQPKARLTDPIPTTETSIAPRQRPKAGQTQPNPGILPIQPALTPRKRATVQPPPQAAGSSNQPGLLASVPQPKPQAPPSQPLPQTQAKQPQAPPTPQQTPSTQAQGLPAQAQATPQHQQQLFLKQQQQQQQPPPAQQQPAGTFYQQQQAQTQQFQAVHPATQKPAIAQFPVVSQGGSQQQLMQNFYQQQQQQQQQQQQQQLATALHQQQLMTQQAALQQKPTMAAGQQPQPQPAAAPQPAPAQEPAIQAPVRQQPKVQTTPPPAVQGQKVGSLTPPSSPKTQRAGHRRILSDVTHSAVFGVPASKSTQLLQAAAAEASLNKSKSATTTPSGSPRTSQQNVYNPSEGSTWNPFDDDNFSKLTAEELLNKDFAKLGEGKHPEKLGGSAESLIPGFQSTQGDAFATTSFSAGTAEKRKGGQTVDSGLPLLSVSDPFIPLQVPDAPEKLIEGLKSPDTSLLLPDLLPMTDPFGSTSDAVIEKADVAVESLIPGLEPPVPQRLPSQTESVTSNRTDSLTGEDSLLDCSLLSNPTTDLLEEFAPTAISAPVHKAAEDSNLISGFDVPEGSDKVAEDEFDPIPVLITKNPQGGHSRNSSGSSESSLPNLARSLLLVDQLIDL
# UniProt Q15131: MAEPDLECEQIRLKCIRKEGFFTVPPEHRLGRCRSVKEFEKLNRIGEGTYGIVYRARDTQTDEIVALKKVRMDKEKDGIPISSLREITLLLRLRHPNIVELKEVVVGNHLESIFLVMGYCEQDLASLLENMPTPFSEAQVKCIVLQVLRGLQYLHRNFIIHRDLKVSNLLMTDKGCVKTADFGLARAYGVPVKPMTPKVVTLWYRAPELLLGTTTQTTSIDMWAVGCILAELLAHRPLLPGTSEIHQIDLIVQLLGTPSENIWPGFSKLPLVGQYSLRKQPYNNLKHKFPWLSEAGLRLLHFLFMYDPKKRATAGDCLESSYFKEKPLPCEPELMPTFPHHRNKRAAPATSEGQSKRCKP
# UniProt P41240: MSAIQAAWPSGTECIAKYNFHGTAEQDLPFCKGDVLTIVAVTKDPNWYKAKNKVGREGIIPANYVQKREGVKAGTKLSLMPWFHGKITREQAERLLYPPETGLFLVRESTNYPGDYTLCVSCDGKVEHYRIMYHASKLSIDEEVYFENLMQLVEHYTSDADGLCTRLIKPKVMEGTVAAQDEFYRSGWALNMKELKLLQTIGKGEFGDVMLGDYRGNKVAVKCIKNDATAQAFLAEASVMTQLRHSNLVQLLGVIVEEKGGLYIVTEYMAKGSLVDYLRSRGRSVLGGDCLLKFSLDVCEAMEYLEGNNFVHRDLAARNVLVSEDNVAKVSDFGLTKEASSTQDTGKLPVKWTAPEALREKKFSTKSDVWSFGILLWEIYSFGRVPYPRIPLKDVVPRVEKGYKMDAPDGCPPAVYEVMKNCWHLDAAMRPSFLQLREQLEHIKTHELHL
# No constants are given. Whether binding was seen depends on the method and setting. Binding seen in cells or lysates may run through a third protein. A yes stands for co-enrichment or nearness to the bait. Other partners may have been found.
# B1: REPS1 (protein, UniProt Q96D71 1-796)
# chain: MEGLTLSDAEQKYYSDLFSYCDIESTKKVVVNGRVLELFRAAQLPNDVVLQIMELCGATRLGYFGRSQFYIALKLVAVAQSGFPLRVESINTVKDLPLPRFVASKNEQESRHAASYSSDSENQGSYSGVIPPPPGRGQVKKGSVSHDTVQPRTSADAQEPASPVVSPQQSPPTSPHTWRKHSRHPSGGNSERPLAGPGPFWSPFGEAQSGSSAGDAVWSGHSPPPPQENWVSFADTPPTSTLLTMHPASVQDQTTVRTVASATTAIEIRRQSSSYDDPWKITDEQRQYYVNQFKTIQPDLNGFIPGSAAKEFFTKSKLPILELSHIWELSDFDKDGALTLDEFCAAFHLVVARKNGYDLPEKLPESLMPKLIDLEDSADVGDQPGEVGYSGSPAEAPPSKSPSMPSLNQTWPELNQSSEQWETFSERSSSSQTLTQFDSNIAPADPDTAIVHPVPIRMTPSKIHMQEMELKRTGSDHTNPTSPLLVKPSDLLEENKINSSVKFASGNTVADGYSSSDSFTSDPEQIGSNVTRQRSHSGTSPDNTAPPPPPPRPQPSHSRSSSLDMNRTFTVTTGQQQAGVVAHPPAVPPRPQPSQAPGPAVHRPVDADGLITHTSTSPQQIPEQPNFADFSQFEVFAASNVNDEQDDEAEKHPEVLPAEKASDPASSLRVAKTDSKTEEKTAASAPANVSKGTTPLAPPPKPVRRRLKSEDELRPEVDEHTQKTGVLAAVLASQPSIPRSVGKDKKAIQASIRRNKETNTVLARLNSELQQQLKDVLEERISLEVQLEQLRPFSHL
# B2: tetratricopeptide repeat protein 14 (TTC14) (protein, UniProt Q96N46 1-770)
# chain: MDRDLLRQSLNCHGSSLLSLLRSEQQDNPHFRSLLGSAAEPARGPPPQHPLQGRKEKRVDNIEIQKFISKKADLLFALSWKSDAPATSEINEDSEDHYAIMPPLEQFMEIPSMDRRELFFRDIERGDIVIGRISSIREFGFFMVLICLGSGIMRDIAHLEITALCPLRDVPSHSNHGDPLSYYQTGDIIRAGIKDIDRYHEKLAVSLYSSSLPPHLSGIKLGVISSEELPLYYRRSVELNSNSLESYENVMQSSLGFVNPGVVEFLLEKLGIDESNPPSLMRGLQSKNFSEDDFASALRKKQSASWALKCVKIGVDYFKVGRHVDAMNEYNKALEIDKQNVEALVARGALYATKGSLNKAIEDFELALENCPTHRNARKYLCQTLVERGGQLEEEEKFLNAESYYKKALALDETFKDAEDALQKLHKYMQKSLELREKQAEKEEKQKTKKIETSAEKLRKLLKEEKRLKKKRRKSTSSSSVSSADESVSSSSSSSSSGHKRHKKHKRNRSESSRSSRRHSSRASSNQIDQNRKDECYPVPANTSASFLNHKQEVEKLLGKQDRLQYEKTQIKEKDRCPLSSSSLEIPDDFGGRSEDPRDFYNSYKTQAGSSKTEKPYKSERHFSSRRNSSDSFCRNSEDKIYGYRRFEKDIEGRKEHYRRWEPGSVRHSTSPASSEYSWKSVEKYKKYAHSGSRDFSRHEQRYRLNTNQGEYEREDNYGEDIKTEVPEEDALSSKEHSESSVKKNLPQNLLNIFNQIAEFEKEKGNKSKN
# B3: geminin (GMNN) (protein, UniProt O75496 1-209)
# chain: MNPSMKQKQEEIKENIKNSSVPRRTLKMIQPSASGSLVGRENELSAGLSKRKHRNDHLTSTTSSPGVIVPESSENKNLGGVTQESFDLMIKENPSSQYWKEVAEKRRKALYEALKENEKLHKEIEQKDNEIARLKKENKELAEVAEHVQYMAELIERLNGEPLDNFESLDNQEFDSEEETVEDSLVEDSEIGTCAEGTVSSSTDAKPCI
# B4: CDK5 and ABL1 enzyme substrate 2 (CABLES2) (protein, UniProt Q9BTV7 1-478)
# chain: MAAAAAGGAPGPAPGPAGPPPPAAPTSAARAPPQALRRRGDSRRRQAALFFLNNISLDGRPPSLGPGGEKPPPPPAEAREPPAPPPPEPPTGLPARTPAPQGLLSPTQVPTGLGLDGQRQRKRVTSQRCSLEFLEDAVGCAPAQRTKHTSGSPRHKGLKKTHFIKNMRQYDTRNSRIVLICAKRSLCAAFSVLPYGEGLRISDLRVDSQKQRHPSGGVSVSSEMVFELEGVELGADGKVVSYAKFLYPTNALVTHKSDSHGLLPTPRPSVPRTLPGSRHKPAPTKSAPASTELGSDVGDTLEYNPNLLDDPQWPCGKHKRVLIFASYMTTVIEYVKPSDLKKDMNETFREKFPHVKLTLSKIRSLKREMRSLSEECSLEPVTVAMAYVYFEKLVLQGKLSKQNRKLCAGACVLLAAKISSDLRKSGVTQLIDKLEERFRFNRRDLIGFEFTVLVALELALYLPENQVLPHYRRLTQQF
# B5: CCNQ (FAM58A) (protein, UniProt Q8N1B3 1-248)
# chain: MEAPEGGGGGPAARGPEGQPAPEARVHFRVARFIMEAGVKLGMRSIPIATACTIYHKFFCETNLDAYDPYLIAMSSIYLAGKVEEQHLRTRDIINVSNRYFNPSGEPLELDSRFWELRDSIVQCELLMLRVLRFQVSFQHPHKYLLHYLVSLQNWLNRHSWQRTPVAVTAWALLRDSYHGALCLRFQAQHIAVAVLYLALQVYGVEVPAEVEAEKPWWQVFNDDLTKPIIDNIVSDLIQIYTMDTEIP
# B6: retinoblastoma-like protein 1 (RBL1) (protein, UniProt P28749 1-1068)
# chain: MFEDKPHAEGAAVVAAAGEALQALCQELNLDEGSAAEALDDFTAIRGNYSLEGEVTHWLACSLYVACRKSIIPTVGKGIMEGNCVSLTRILRSAKLSLIQFFSKMKKWMDMSNLPQEFRERIERLERNFEVSTVIFKKYEPIFLDIFQNPYEEPPKLPRSRKQRRIPCSVKDLFNFCWTLFVYTKGNFRMIGDDLVNSYHLLLCCLDLIFANAIMCPNRQDLLNPSFKGLPSDFHTADFTASEEPPCIIAVLCELHDGLLVEAKGIKEHYFKPYISKLFDRKILKGECLLDLSSFTDNSKAVNKEYEEYVLTVGDFDERIFLGADAEEEIGTPRKFTRDTPLGKLTAQANVEYNLQQHFEKKRSFAPSTPLTGRRYLREKEAVITPVASATQSVSRLQSIVAGLKNAPSDQLINIFESCVRNPVENIMKILKGIGETFCQHYTQSTDEQPGSHIDFAVNRLKLAEILYYKILETVMVQETRRLHGMDMSVLLEQDIFHRSLMACCLEIVLFAYSSPRTFPWIIEVLNLQPFYFYKVIEVVIRSEEGLSRDMVKHLNSIEEQILESLAWSHDSALWEALQVSANKVPTCEEVIFPNNFETGNGGNVQGHLPLMPMSPLMHPRVKEVRTDSGSLRRDMQPLSPISVHERYSSPTAGSAKRRLFGEDPPKEMLMDKIITEGTKLKIAPSSSITAENVSILPGQTLLTMATAPVTGTTGHKVTIPLHGVANDAGEITLIPLSMNTNQESKVKSPVSLTAHSLIGASPKQTNLTKAQEVHSTGINRPKRTGSLALFYRKVYHLASVRLRDLCLKLDVSNELRRKIWTCFEFTLVHCPDLMKDRHLDQLLLCAFYIMAKVTKEERTFQEIMKSYRNQPQANSHVYRSVLLKSIPREVVAYNKNINDDFEMIDCDLEDATKTPDCSSGPVKEERGDLIKFYNTIYVGRVKSFALKYDLANQDHMMDAPPLSPFPHIKQQPGSPRRISQQHSIYISPHKNGSGLTPRSALLYKFNGSPSKSLKDINNMIRQGEQRTKKRVIAIDSDAESPAKRVCQENDDVLLKRLQDVVSERANH
# B7: transcription factor Dp-2 (TFDP2) (protein, UniProt Q14188 1-446)
# chain: MTAKNVGLTSTNAEVRGFIDQNLSPTKGNISFVAFPVSNTNSPTKILPKTLGPINVNVGPQMIISTPQRLTSSGSVLIGSPYTPAPAMVTQTHIAEATGWVPGDRKRARKFIDSDFSESKRSKKGDKNGKGLRHFSMKVCEKVQRKGTTSYNEVADELVSEFTNSNNHLAADSAYDQKNIRRRVYDALNVLMAMNIISKEKKEIKWIGLPTNSAQECQNLEIEKQRRIERIKQKRAQLQELLLQQIAFKNLVQRNRQNEQQNQGPPALNSTIQLPFIIINTSRKTVIDCSISSDKFEYLFNFDNTFEIHDDIEVLKRMGMSFGLESGKCSLEDLKLAKSLVPKALEGYITDISTGPSWLNQGLLLNSTQSVSNLDLTTGATLPQSSVNQGLCLDAEVALATGQFLAPNSHQSSSAASHCSESRGETPCSFNDEDEEDDEEDSSSPE
# B8: CDK5 and ABL1 enzyme substrate 1 (CABLES1) (protein, UniProt Q8TDN4 1-633)
# chain: MAAAAAAATTAACSSGSAGTDAAGASGLQQPPPQPQPQPAAAAPAQPPPEPPRKPRMDPRRRQAALSFLTNISLDGRLPPQDAEWGGGEEGGAAKPGAGGACGARTRFSLLAAAERGGCIALAAPGTPAAGLAAGSGPCLPQPSSLPPLIPGGHATVSGPGVARGFASPLGAGRASGEQWQPPRPAPLAACAQLQLLDGSGAAGQEELEEDDAFISVQVPAAAFLGSGTPGSGSGSRGRLNSFTQGILPIAFSRPTSQNYCSLEQPGQGGSTSAFEQLQRSRRRLISQRSSLETLEDIEENAPLRRCRTLSGSPRPKNFKKIHFIKNMRQHDTRNGRIVLISGRRSFCSIFSVLPYRDSTQVGDLKLDGGRQSTGAVSLKEIIGLEGVELGADGKTVSYTQFLLPTNAFGARRNTIDSTSSFSQFRNLSHRSLSIGRASGTQGSLDTGSDLGDFMDYDPNLLDDPQWPCGKHKRVLIFPSYMTTVIDYVKPSDLKKDMNETFKEKFPHIKLTLSKIRSLKREMRKLAQEDCGLEEPTVAMAFVYFEKLALKGKLNKQNRKLCAGACVLLAAKIGSDLKKHEVKHLIDKLEEKFRLNRRELIAFEFPVLVALEFALHLPEHEVMPHYRRLVQSS
# B9: UBASH3A (protein, UniProt P57075 1-661)
# chain: MAAGETQLYAKVSNKLKSRSSPSLLEPLLAMGFPVHTALKALAATGRKTAEEALAWLHDHCNDPSLDDPIPQEYALFLCPTGPLLEKLQEFWRESKRQCAKNRAHEVFPHVTLCDFFTCEDQKVECLYEALKRAGDRLLGSFPTAVPLALHSSISYLGFFVSGSPADVIREFAMTFATEASLLAGTSVSRFWIFSQVPGHGPNLRLSNLTRASFVSHYILQKYCSVKPCTKQLHLTLAHKFYPHHQRTLEQLARAIPLGHSCQWTAALYSRDMRFVHYQTLRALFQYKPQNVDELTLSPGDYIFVDPTQQDEASEGWVIGISQRTGCRGFLPENYTDRASESDTWVKHRMYTFSLATDLNSRKDGEASSRCSGEFLPQTARSLSSLQALQATVARKSVLVVRHGERVDQIFGKAWLQQCSTPDGKYYRPDLNFPCSLPRRSRGIKDFENDPPLSSCGIFQSRIAGDALLDSGIRISSVFASPALRCVQTAKLILEELKLEKKIKIRVEPGIFEWTKWEAGKTTPTLMSLEELKEANFNIDTDYRPAFPLSALMPAESYQEYMDRCTASMVQIVNTCPQDTGVILIVSHGSTLDSCTRPLLGLPPRECGDFAQLVRKIPSLGMCFCEENKEEGKWELVNPPVKTLTHGANAAFNWRNWISGN
# B10: PURA (protein, UniProt Q00577 1-322)
# chain: MADRDSGSEQGGAALGSGGSLGHPGSGSGSGGGGGGGGGGGGSGGGGGGAPGGLQHETQELASKRVDIQNKRFYLDVKQNAKGRFLKIAEVGAGGNKSRLTLSMSVAVEFRDYLGDFIEHYAQLGPSQPPDLAQAQDEPRRALKSEFLVRENRKYYMDLKENQRGRFLRIRQTVNRGPGLGSTQGQTIALPAQGLIEFRDALAKLIDDYGVEEEPAELPEGTSLTVDNKRFFFDVGSNKYGVFMRVSEVKPTYRNSITVPYKVWAKFGHTFCKYSEEMKKIQEKQREKRAACEQLHQQQQQQQEETAAATLLLQGEEEGEED
# Biological target: adapter-associated kinase 1 (AAK1) (human (endogenous in FOCUS)) (UniProt Q2M2I8)
# Assay: affinity purification with mass spectrometry
row,binding,Binder
1,binds,B1

# Biological target: CDK10 (human (endogenous in cancer cell lines)) (UniProt Q15131)
# Assay: affinity purification with mass spectrometry
row,binding,Binder
1,binds,B2
2,binds,B3
3,binds,B4
4,binds,B5
5,binds,B6
6,binds,B7
7,binds,B8

# Biological target: CSK (human (endogenous in Jurkat, FOCUS and other cancer cell lines)) (UniProt P41240)
# Assay: affinity purification with mass spectrometry
row,binding,Binder
1,binds,B9
2,binds,B10
